{"source": "paper PMC5770445", "binders": {"B1": {"name": "LpxA expressed from pUT18C (enzyme, UniProt A7MI18 1-262)", "chain": "MIDKTAFIHPTAIVEEGAVIGANAHIGPFCIVGPDVKIGEGTVLKSHVVVNGHTTIGRDNEIYQFASIGEVNQDLKYAGEPTRVEIGDRNRIRESVTIHRGTAQGGGLTKVGSDNLLMINAHVAHDCTVGNRCILANNATLAGHVSVDDFAIIGGMTAVHQFCIIGAHVMVGGCSGVAQDVPPYVIAQGNHATPFGVNIEGLKRRGFSKEALHAIRNAYKLLYRSGKTLDEVKPEIAEIAAKHPEVQPFYDFFARSTRGLIR"}, "B2": {"name": "His-LpxA (enzyme, UniProt A7MI18 1-262)", "chain": "B1 chain"}, "B3": {"name": "LpxD expressed from pUT18C (enzyme, UniProt A7MGT5 1-341)", "chain": "MPSIRLADLARQLDAELHGDGDIAITGVASMQSAQEGQITFMVNPRYREQLAHCQASAVVMTEADLPFANSAALVVKNPYLTYARMAQILDTTPQPASSIAPSAVIDASARLGNNVAVGANAVIESGVELGDNVVIGPGCFVGKNSKLGAGTRLWANVSIYHDIQIGENCLIQSSTVIGADGFGYANDRGNWVKIPQLGRVIIGDRVEIGACTTIDRGALDDTIIGNGVIIDNQCQIAHNVVIGDNTAVAGGVIMAGSLKIGRYCMIGGASVINGHMEICDKVTVTGMGMVMRPITEPGVYSSGIPLQPNKVWRKTAALVMNIDEMNKRLKAVERKVTQQD"}}, "key": {"[1]": {"molecular_target": "CSK29544_02616 product (Labp) expressed from pKT25 (C. sakazakii)", "experiment": "two-hybrid; bacterial adenylate cyclase-based two-hybrid (BACTH) in E. coli BTH101, pKT25 and pUT18C fusions, β-galactosidase activity in Miller units"}, "[2]": {"molecular_target": "GST-CSK29544_02616 (C. sakazakii)", "experiment": "pull-down; GST pull-down: cells producing His-LpxA and GST-CSK29544_02616 mixed 1:1 and lysed together in IP150 buffer (50 mM Tris-HCl pH 7.4, 150 mM NaCl, 2 mM MgCl2, 0.1% NP-40); GSH-agarose beads, 4 °C, 3 h; immunoblot with anti-GST and anti-His"}}, "note": "These are yes or no findings as the source states them, for the method shown. Binding calls can cover weak binding; strength is not graded here. For part of these data: In cells and extracts the contact can be indirect. For part of these data: Where a sequence is shown, tags or fusion partners need not be part of it.", "data": [{"binder": "B1", "values": [{"measurement": "binding", "setting": "[1]", "result": "binds"}]}, {"binder": "B2", "values": [{"measurement": "binding", "setting": "[2]", "result": "binds"}]}, {"binder": "B3", "values": [{"measurement": "binding", "setting": "[1]", "result": "no binding"}]}]}
